Source: patent US9115092B2, “Substituted quinazoline and pyrido-pyrimidine derivatives” (Asana Biosciences, LLC, priority 2010, dated 2015)
Some entries share one result that the patent states for a list of compounds.

Tested on: PC3 cells
Assay: In vivo efficacy study (tumor growth suppression), PC3 xenograft
Conditions: PC3 xenograft mice
Protocol: PC3 cells were cultured at 37° C. in a 5% CO2 incubator using Hams F12 K medium. Five million (5×10^6) cells were implanted subcutaneously to the right flank of athymic male mice (Harlan, age: 6-7 weeks, weight: about 20 g). Tumor bearing mice were randomized when the tumor volume reached about 100 mm^3. Ten mice were used per group. Dosage regimen of compounds of formula (I) were scheduled on the basis of the PK, PK-PD and maximum tolerated dose studies. Compounds of formula (I) were formulated using HPCD in PBS, pH 7.4 and dosed orally (dose volume, 10 mL/kg). Solutions of the compounds were prepared immediately before dosing the animals. A vehicle control and a reference compound were included along with test compounds.
The tumor size was measured on alternate days using Vernier® calipers. Assuming tumors to be ellipsoid, the tumor volume was calculated using the formula: V=(D×d^2)/2 […]
Changes in tumor volume (Δ volumes) for each treated (T) and control (C) group were calculated by subtracting the mean tumor volume on the first day of treatment (starting day) from the mean tumor volume on the specified observation day. […]
Percentage tumor growth inhibition was calculated as [100−% T/C]. Percentage body weight change was calculated as [(Body weight on specified observation day−Body weight on starting day)/Body weight on starting day]×100. […]

Compound	tumor growth inhibition relative to vehicle control group (after 14 days of dosing at 30 or 60 mg/kg qd po)	tumor growth inhibition relative to vehicle control group (after 14 days of dosing at 60 mg/kg qd po or at 30 mg/kg bid po)
Cc1ccc(-c2ccc3c(N4CCOCC4)nc(-c4ccc(NC(=O)Nc5ccc(C(=O)N(C)C)cc5)cc4)nc3c2)o1 [Example 2, N,N-Dimethyl-4-(3-{4-[7-(5-methyl-furan-2-yl)-4-morpholin-4-yl-quinazolin-2-yl]-phenyl}-ureido)-benzamide]	more than 70%	–
CN(C)C(=O)c1ccc(NC(=O)Nc2ccc(-c3nc(N4CCOCC4)c4ccc(-c5cncnc5)cc4n3)cc2)cc1 [Example 1, N,N-Dimethyl-4-(3-{4-[4-morpholin-4-yl-7-pyrimidin-5-yl-quinazolin-2-yl)-phenyl]-ureido}-benzamide]	–	more than 70%
